According to article doi:10.1101/2021.04.23.441060:
No constants are given. Whether binding was seen depends on the method and setting. Binding seen in cells or lysates may run through a third protein. Here binding means that the protein was enriched with, or labelled near, the bait; the list need not be complete.

By UniProt entry, the sequences of proteins in these tests, tags left out.
UniProt P48432: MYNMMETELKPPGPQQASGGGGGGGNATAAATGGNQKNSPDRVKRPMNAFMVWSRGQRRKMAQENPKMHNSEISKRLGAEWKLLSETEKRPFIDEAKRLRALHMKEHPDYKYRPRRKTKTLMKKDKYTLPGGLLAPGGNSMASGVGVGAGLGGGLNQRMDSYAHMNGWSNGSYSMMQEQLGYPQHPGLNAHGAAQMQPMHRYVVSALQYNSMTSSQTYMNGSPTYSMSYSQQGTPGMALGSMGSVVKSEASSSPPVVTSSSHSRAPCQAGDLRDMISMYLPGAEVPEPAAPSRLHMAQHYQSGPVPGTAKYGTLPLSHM
UniProt Q08122: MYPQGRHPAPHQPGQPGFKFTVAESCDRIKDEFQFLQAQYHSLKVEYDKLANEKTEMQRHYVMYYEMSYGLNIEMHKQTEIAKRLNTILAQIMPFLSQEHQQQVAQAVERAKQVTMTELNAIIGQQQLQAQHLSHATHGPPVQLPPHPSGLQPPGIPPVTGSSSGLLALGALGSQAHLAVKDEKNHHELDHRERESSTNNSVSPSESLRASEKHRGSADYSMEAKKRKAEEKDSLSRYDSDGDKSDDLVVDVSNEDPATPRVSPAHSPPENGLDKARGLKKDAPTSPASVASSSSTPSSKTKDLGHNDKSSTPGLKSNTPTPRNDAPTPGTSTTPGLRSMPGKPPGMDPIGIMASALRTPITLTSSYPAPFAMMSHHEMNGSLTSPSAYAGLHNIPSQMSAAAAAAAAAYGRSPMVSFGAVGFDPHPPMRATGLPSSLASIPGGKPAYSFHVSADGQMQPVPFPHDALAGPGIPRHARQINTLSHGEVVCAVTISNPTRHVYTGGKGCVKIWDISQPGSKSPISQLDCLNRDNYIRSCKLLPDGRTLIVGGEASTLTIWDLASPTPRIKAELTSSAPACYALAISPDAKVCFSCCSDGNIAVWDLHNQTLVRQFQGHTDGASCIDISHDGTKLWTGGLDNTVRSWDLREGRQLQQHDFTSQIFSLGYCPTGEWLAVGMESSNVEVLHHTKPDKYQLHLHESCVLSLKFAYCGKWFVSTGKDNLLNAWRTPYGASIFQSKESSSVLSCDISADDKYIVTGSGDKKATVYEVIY
UniProt O09106: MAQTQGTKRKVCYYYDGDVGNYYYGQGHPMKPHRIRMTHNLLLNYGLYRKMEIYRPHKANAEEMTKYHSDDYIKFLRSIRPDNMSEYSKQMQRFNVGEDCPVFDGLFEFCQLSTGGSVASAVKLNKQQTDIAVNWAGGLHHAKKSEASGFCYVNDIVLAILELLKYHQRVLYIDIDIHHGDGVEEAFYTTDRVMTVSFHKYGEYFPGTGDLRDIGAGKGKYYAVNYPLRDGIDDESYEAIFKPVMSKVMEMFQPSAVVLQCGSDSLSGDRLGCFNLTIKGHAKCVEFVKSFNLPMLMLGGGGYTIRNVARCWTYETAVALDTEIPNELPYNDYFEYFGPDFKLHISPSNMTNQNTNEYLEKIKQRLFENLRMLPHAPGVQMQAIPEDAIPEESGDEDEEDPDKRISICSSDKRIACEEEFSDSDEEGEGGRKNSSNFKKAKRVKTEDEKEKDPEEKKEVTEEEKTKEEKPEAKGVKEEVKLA
UniProt P70288: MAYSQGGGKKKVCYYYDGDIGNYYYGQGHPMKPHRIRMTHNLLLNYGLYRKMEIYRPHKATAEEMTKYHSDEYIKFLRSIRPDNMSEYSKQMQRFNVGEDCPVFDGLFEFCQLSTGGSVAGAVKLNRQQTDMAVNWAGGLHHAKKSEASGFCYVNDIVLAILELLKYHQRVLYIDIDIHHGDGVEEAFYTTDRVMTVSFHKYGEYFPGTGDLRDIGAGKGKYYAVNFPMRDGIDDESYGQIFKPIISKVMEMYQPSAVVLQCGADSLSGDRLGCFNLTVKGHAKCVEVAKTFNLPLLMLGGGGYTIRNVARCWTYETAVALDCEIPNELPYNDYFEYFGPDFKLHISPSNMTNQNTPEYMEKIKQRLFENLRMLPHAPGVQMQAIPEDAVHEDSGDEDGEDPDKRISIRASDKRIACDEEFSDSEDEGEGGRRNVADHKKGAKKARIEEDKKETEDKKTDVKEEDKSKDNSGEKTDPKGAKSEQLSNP
UniProt P11103: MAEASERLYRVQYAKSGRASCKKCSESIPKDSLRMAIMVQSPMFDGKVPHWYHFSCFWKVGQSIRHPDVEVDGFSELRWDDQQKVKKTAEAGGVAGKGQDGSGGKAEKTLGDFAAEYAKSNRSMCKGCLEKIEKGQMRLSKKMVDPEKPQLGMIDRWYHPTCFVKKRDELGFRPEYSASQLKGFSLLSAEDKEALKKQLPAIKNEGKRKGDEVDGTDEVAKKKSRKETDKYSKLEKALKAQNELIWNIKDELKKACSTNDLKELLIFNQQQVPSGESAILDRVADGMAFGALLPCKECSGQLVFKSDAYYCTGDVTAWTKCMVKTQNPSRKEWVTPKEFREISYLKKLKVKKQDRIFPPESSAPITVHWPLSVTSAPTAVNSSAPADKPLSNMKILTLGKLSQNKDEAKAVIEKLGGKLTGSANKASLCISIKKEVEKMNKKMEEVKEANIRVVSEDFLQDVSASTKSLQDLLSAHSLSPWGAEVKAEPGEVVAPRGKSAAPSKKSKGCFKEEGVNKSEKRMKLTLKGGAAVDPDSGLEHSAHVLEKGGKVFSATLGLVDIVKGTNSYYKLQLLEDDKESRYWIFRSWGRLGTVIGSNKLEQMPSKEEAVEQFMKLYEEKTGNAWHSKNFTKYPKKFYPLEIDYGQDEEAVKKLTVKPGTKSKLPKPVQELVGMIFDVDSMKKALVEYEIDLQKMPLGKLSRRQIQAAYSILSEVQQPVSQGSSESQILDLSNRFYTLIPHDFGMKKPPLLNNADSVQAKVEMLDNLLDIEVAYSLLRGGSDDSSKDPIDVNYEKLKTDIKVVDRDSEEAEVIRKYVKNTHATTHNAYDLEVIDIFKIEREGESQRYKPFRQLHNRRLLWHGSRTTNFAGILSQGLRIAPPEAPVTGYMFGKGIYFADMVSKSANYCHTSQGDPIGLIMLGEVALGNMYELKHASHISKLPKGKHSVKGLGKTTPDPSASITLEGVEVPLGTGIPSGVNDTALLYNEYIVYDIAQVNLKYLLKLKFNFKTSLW

molecular target: Sox2 (not stated (endogenous in primary rodent OLs; mouse and rat cultures were made)) (UniProt P48432); experiment: affinity purification with mass spectrometry

binding, binds:
TLE3 (from UniProt Q08122 1-772)
HDAC1 (from UniProt O09106 1-482) (enzyme)
HDAC2 (from UniProt P70288 1-488) (enzyme)
poly (ADP-ribose) polymerase 1 (PARP1) (from UniProt P11103 1-1013) (enzyme)
